35 molecules from PubChem BioAssay AID2685 (National Center for Advancing Translational Sciences (NCATS), 2010) can be followed below.

The AC50 is the midpoint of the concentration-response curve, whichever way the signal moves.

Structures are written as SMILES. Where “and” joins values, the source holds several entries; their conditions need not be identical. Identical values can stand only once. The list shows a part of the results. The main result of the screen is listed elsewhere. These columns were measured beside it and carry no call. Compounds called inactive in the main read-out are mostly missing here. Potencies come from curve fits of mixed quality, noted in brackets.

A short description of the assay: qHTS Assay for Lipid Storage Modulators in Drosophila S3 Cells.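 For cell number change: cells counted by Cell Tracker Red CMTPX staining in the red channel.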 The conditions noted are these: BODIPY lipid droplet fluorescence, 18-24 h; for cell number change: measured here: cell count max response, cells fed with added oleic acid. The procedure, abridged:
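Drosophila S3 cells got compounds at several concentrations plus oleic acid (400 uM solution). Laser-scanning cytometry with 488 nm excitation read lipid droplets at 500-530 nm and cells at 575-640 nm. Percent activity was relative to 20 uM Triacsin C.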
(Quantitative high-throughput screening tests each substance at several concentrations.)

Setting [1] is: measured here: lipid fluorescence (Fed channel) AC50, cells fed with added oleic acid.
The mark [2] stands for this setting: measured here: cell number channel AC50, cells fed with added oleic acid.

As for `O=C(NCC1CCCO1)c1cccc(-n2cnnn2)c1` (configuration not stated), the cell number change came out at 6.93%. Moreover, under setting [1], the AC50 is 0.13 µM [falling, full curve, poor fit].

As to `Cc1ccc(/C=C2/SC(=S)N(CCC(=O)NCCCN3CCOCC3)C2=O)cc1`, the cell number change was found to be 5.82%. Also, the AC50 under setting [1] was 3.26 µM [rising, full curve, poor fit].

In the case of `CCO[C@@H]1OC(C(=O)NCc2nc3ccccc3[nH]2)=C[C@H](c2cn(C(C)=O)c3ccccc23)[C@H]1CCCO`, the cell number change is -34.1%. The AC50 under setting [2] was 18.4 µM [falling, single point].

In the case of `O=C1CCCC(c2ccccc2)N1` (configuration not stated), the cell number change worked out at 9.14%. The AC50 under setting [1] was 16.4 µM [falling, partial curve, poor fit].

Consider `C/C(=C/c1oc2ccc(O)cc2c1[N+](=O)[O-])N(C)C`, for which the cell number change was -58.1%. For the same molecule, the AC50 under setting [2] was 8.2 µM [falling, partial curve].

Consider `CCC(=O)N1CCc2cc(S(=O)(=O)NCCCN3CCN(Cc4ccccc4)CC3)ccc21`, for which the cell number change came to 30.5%. Moreover, the AC50 under setting [2] was 9.2 µM [rising, partial curve].

Regarding `COc1ccccc1C(=O)Nc1ccc2c(c1)CCCN2C(=O)c1cccs1`, the cell number change was -12.8%. For the same molecule, the AC50 under setting [1] was 4.11 µM [falling, partial curve, poor fit].

For `COc1ccc(CNC(=O)C(C)Sc2ccc(C)cc2)cc1` (configuration not stated), the cell number change was 8.87%. In addition, the AC50 under setting [1] is 0.146 µM [rising, full curve].

In the case of `CCOc1ccccc1CNc1ncnc2ccc(-c3c(C)noc3C)cc12`, the cell number change is 4.97% and -31.4%. Under setting [2], the AC50 is 0.00461 µM [falling, full curve, poor fit]. The AC50 under setting [1] was 14.6 µM [falling, partial curve, poor fit] and 32.6 µM [falling, single point].

As for `C=CCCC(=O)NC1CCCc2c1cnn2-c1ccccc1F` (configuration not stated), the cell number change is -55%. Besides, the AC50 under setting [2] was 20.6 µM [falling, single point]. In addition, under setting [1], the AC50 is 7.31 µM [falling, partial curve].

Turning to `COc1ccc2cc(C=O)n(C)c2c1`, the cell number change was -4.41%. The AC50 under setting [2] is 1.03 µM [rising, single point]. For the same molecule, the AC50 under setting [1] was 11.6 µM [rising, single point].

Take `CCOCCCNC(=S)N(CCN(C)C)Cc1cc2cc3c(cc2[nH]c1=O)OCCO3`: the cell number change amounted to 9.09%. Also, the AC50 under setting [2] is 0.092 µM [rising, full curve, poor fit]. Further, under setting [1], the half-maximal activity concentration (AC50) was 0.731 µM [falling, full curve, poor fit].

In the case of `O=C(CCN1C(=O)/C(=C/c2ccccc2F)SC1=S)NCCc1ccc(O)cc1`, the cell number change amounted to 32%. Further, the AC50 under setting [2] is 29.1 µM [rising, single point]. For the same molecule, under setting [1], the AC50 was 29.1 µM [falling, single point].

As for `Cc1noc(C)c1S(=O)(=O)Nc1ccc(C(=O)NC2CCCCC2C)cc1` (configuration not stated), the AC50 under setting [2] is 6.51 µM [falling, single point].

For `COc1ccc(Cl)cc1NC(=O)CCc1nnc2ccc(N3CCN(C)CC3)nn12`, the cell number change was -44.9%. The concentration at half-maximal activity (AC50) under setting [2] was 29.1 µM [falling, single point]. For the same molecule, the AC50 under setting [1] was 0.13 µM [falling, full curve, poor fit].

As for `COc1cc(NC(=O)CSc2nnc3c(C)cc4cc(C)cc(C)c4n23)c(C(=O)O)cc1OC`, the cell number change is -40.3%. For the same molecule, under setting [2], the AC50 was 5.8 µM [falling, partial curve, poor fit]. Further, the AC50 under setting [1] is 1.84 µM [falling, full curve].

For the molecule `Cc1ccc(-n2nnnc2SC(C)C(=O)Nc2ccc(Cl)cn2)cc1` (configuration not stated), the cell number change is -22.2%. Besides, the half-maximal activity concentration (AC50) under setting [1] was 29.1 µM [falling, single point].

Turning to `CCOC(=O)C1=C(CSc2nncn2C)NC(=O)NC1c1cc(OCC)ccc1OCC` (configuration not stated), the cell number change was -121%. For the same molecule, the AC50 under setting [2] was 16.4 µM [falling, partial curve, poor fit]. The AC50 under setting [1] is 6.51 µM [falling, single point].

On to `Cc1nc(NC(=O)CSc2nnc(N)s2)c(Cl)cc1Cl`, for which the AC50 under setting [2] is 0.651 µM [rising, partial curve, poor fit].

With `CC(=O)N1CCN=C1SCc1ccccc1F`, the cell number change was determined as 12.3%. Moreover, the AC50 under setting [1] was 29.1 µM [falling, partial curve, poor fit].

Consider `CCN(C(=O)COC(=O)c1ccc(OC)c(S(=O)(=O)N2CCCc3ccccc32)c1)C1CCS(=O)(=O)C1` (configuration not stated), for which the cell number change is -81%. The AC50 under setting [2] was 14.6 µM [falling, partial curve].

For `Cn1c(SCC(=O)c2c(N)n(C)c(=O)n(C)c2=O)nnc1-c1ccc(F)cc1`, the cell number change turned out to be 1.18%.

With `CCN(CC(=O)Nc1ccc(Br)cc1)C(=O)c1nc2nc(C)cc(C)n2n1`, the cell number change is -26.4%. Moreover, under setting [1], the AC50 was 3.26 µM [rising, single point].

`COC(=O)c1ccc(-c2nc3ccccc3[nH]2)cc1`: the cell number change is 3.49%. Further, the AC50 under setting [1] was 0.00731 µM [rising, full curve, poor fit].

Regarding `Cc1ccc(C(=O)O)cc1N1C(=O)c2cccc3c([N+](=O)[O-])ccc(c23)C1=O`, the cell number change was -21.3%.

Consider `CCc1ccc(NC(=O)C(C)OC(=O)C2CCC(=O)N2)cc1` (configuration not stated), for which the cell number change was 6.12%.

Turning to `COc1cc(OC)c(/C=C2\C(=O)Nc3ccccc32)c(OC)c1`, the cell number change is -12.9%. In addition, the AC50 under setting [2] is 0.291 µM [rising, partial curve, poor fit].

As for `CCOc1ccccc1N=C1SC(CC(=O)Nc2ccc(OC)cc2OC)C(=O)N1CCC1=CCCCC1` (configuration not stated), the AC50 under setting [1] was 29.1 µM [falling, single point].

Regarding `CCCCC(=O)Nc1ccc(NC(=O)c2cccnc2)cn1`, the cell number change was found to be 33.4%. Besides, the AC50 under setting [2] was 4.61 µM [rising, partial curve]. In addition, the AC50 under setting [1] was 6.51 µM [rising, single point].

For the molecule `COc1ccc(C(=O)/C=C/c2ccc(OC)c(O)c2)c(F)c1`, the cell number change was -15.4%. Under setting [1], the AC50 is 2.31 µM [falling, partial curve].

As for `CCC1(C)CC(CC(=O)O)(c2ccccc2OC)CCO1` (configuration not stated), the half-maximal activity concentration (AC50) under setting [1] is 20.6 µM [falling, partial curve].

Consider `Cc1ccc2cc(CN(C(=O)c3ccncc3)C(C)C)c(=O)[nH]c2c1`, for which the cell number change was -14.7%. Further, the AC50 under setting [2] was 6.51 µM [rising, single point].

Take `COCCn1c(SCC(=O)Nc2cc(C)on2)nc2ccccc21`: the cell number change is 80.5%. Moreover, under setting [1], the AC50 was 1.64 µM [falling, single point].

On to `CC(=O)c1cnc2nc(C(F)(F)F)nn2c1C`, for which the cell number change was 2.5%. The AC50 under setting [1] is 2.31 µM [falling, partial curve].

As for `COc1cc2c(cc1NC(=O)C1CCCO1)oc1ccccc12` (configuration not stated), the cell number change is -13.5%. The AC50 under setting [1] is 1.84 µM [rising, partial curve].
